The results in this text go back to patent EP2961753B1, “STANNOUS FLUORESCENT PROBE” (priority 2014, dated 2015).

The test system of this series is KB cells. The series can be described thus: Fluorescence imaging of intracellular Sn^2+ (confocal laser scanning microscopy). Format: cell-based.

With `CCN(CC)c1ccc2c(c1)Oc1cc(N(CC)CC)ccc1C21c2ccccc2C(=O)N1NC(=O)OC(C)(C)C` [Compound R2], under “KB cells stained with 10 µM probe at 37 °C for 30 min, λex 543 nm, emission 560-660 nm”, the “fluorescence emission without Sn^2+ present” value is recorded as “scarcely fluorescence”. Moreover, under “KB cells, probe for 30 min at 37 °C, then 50 µM Sn^2+ under the same conditions”, the “change of fluorescence after incubation with Sn^2+” value was “significant fluorescence increasing”.
